In patent US10442791B2, “DNA-PK inhibitors” (Vertex Pharmaceuticals Incorporated, priority 2012, dated 2019):
Some entries share one result that the patent states for a list of compounds.

Protein sequences, listed by entry. Tags and fused reporters are not part of them.
UniProt P78527, whole entry: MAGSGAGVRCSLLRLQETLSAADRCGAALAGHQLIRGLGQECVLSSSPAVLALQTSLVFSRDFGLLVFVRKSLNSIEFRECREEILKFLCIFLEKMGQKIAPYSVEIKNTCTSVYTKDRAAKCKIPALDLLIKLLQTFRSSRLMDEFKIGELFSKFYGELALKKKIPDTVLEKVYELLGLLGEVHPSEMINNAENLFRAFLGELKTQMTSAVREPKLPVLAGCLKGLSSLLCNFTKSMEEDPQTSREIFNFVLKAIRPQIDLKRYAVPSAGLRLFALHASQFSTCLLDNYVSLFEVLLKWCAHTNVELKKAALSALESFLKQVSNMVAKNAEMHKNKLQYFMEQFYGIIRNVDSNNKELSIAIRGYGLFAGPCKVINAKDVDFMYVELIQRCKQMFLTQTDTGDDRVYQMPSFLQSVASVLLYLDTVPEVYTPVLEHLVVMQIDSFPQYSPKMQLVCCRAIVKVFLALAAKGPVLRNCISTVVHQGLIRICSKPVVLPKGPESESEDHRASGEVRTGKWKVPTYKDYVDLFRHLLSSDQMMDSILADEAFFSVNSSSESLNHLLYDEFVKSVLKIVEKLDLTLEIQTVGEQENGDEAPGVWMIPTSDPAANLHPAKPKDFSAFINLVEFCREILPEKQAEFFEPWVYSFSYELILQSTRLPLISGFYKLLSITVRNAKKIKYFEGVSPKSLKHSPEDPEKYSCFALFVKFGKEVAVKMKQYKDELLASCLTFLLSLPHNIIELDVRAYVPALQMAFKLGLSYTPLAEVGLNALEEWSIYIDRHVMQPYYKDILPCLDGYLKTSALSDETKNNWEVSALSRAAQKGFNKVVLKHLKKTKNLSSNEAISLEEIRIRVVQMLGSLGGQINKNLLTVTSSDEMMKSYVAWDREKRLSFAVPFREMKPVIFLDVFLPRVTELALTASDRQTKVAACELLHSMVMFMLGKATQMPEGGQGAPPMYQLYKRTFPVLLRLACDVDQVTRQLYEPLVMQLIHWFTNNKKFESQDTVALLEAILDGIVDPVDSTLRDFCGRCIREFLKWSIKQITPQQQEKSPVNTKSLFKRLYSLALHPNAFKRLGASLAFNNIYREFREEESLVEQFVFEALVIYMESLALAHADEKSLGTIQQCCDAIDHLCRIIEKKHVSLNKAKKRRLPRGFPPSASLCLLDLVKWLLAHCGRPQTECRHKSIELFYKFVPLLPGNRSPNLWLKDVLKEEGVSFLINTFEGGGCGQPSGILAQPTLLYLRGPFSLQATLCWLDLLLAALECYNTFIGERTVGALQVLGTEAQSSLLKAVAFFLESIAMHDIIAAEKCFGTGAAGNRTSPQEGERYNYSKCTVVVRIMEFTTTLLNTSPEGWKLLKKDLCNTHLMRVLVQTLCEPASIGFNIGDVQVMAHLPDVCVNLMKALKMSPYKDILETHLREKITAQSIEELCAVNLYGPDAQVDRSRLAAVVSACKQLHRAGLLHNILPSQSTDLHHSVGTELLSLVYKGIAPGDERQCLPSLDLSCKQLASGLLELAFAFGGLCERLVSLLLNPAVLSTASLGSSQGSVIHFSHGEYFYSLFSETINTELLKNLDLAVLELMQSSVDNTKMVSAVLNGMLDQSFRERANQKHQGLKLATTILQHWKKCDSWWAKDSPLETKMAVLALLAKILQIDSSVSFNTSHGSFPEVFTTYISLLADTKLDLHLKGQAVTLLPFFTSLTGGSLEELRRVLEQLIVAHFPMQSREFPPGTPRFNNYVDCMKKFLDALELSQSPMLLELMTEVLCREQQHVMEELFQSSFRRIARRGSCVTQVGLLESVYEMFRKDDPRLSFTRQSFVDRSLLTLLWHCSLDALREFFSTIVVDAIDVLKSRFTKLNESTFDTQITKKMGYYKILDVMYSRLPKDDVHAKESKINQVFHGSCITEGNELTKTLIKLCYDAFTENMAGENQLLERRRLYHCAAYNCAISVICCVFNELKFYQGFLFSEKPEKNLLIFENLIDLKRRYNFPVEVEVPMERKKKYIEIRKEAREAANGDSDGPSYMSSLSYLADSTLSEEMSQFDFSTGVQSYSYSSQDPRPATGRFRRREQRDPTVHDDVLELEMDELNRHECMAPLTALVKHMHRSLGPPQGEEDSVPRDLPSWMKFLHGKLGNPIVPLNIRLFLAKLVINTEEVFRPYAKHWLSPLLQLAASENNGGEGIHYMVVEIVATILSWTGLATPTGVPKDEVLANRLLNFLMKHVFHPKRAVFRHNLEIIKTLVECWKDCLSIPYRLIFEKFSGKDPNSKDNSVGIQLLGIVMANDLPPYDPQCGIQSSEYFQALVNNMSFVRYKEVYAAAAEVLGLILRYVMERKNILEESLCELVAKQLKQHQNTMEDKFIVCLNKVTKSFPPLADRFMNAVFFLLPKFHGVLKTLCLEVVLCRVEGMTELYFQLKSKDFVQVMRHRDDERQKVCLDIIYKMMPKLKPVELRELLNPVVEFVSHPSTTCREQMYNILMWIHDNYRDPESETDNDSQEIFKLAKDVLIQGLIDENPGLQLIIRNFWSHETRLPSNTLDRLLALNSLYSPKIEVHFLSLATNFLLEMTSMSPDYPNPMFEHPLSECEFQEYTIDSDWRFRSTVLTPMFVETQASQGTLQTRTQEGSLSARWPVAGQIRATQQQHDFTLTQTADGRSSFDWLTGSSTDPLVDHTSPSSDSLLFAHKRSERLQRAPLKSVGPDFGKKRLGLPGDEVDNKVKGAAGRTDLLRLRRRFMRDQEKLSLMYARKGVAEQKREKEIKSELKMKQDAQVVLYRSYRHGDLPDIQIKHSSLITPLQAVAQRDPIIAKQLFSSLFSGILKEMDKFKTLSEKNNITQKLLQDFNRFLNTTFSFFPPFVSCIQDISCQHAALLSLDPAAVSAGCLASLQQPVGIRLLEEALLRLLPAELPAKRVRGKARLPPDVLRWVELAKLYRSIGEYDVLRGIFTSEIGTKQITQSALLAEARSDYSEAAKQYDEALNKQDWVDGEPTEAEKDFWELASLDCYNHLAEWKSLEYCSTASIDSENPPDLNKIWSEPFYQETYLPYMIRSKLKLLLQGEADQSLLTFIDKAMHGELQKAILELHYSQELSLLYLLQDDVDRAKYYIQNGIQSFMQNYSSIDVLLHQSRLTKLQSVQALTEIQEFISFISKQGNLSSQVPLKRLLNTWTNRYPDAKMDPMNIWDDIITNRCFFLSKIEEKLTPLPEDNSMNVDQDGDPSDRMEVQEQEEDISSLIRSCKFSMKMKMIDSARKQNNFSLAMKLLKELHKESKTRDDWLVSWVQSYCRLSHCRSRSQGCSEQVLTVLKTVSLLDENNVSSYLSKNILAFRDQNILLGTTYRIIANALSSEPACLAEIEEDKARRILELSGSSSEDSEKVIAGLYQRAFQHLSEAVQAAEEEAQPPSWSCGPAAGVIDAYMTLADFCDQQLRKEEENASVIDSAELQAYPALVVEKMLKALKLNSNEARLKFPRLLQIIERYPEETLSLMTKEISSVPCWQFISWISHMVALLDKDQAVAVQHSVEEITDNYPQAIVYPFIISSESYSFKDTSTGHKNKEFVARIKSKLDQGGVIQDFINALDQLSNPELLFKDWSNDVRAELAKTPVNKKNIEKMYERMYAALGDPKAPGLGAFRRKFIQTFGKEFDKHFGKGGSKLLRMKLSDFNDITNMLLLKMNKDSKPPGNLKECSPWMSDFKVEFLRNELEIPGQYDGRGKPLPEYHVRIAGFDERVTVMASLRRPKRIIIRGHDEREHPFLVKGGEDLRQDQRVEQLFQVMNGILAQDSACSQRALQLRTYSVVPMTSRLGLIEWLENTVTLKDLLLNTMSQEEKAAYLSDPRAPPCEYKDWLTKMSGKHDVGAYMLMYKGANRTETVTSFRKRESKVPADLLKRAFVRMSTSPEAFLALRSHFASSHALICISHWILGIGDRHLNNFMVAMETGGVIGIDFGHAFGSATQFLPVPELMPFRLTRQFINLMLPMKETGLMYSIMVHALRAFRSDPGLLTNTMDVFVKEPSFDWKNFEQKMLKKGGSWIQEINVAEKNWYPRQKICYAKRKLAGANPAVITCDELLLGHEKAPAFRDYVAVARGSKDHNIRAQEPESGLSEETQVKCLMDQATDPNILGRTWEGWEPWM

Target: DNA-PK (Homo sapiens, UniProt P78527)
Experiment: DNA-PK inhibition assay (radiometric 33P-ATP kinase assay)
Assay type: biochemical
Conditions: 100 μM ATP; competitive tight-binding fit
Experimental: Compounds were screened for their ability to inhibit DNA-PK kinase using a standard radiometric assay. Briefly, in this kinase assay the transfer of the terminal ^33P-phosphate in ^33P-ATP to a peptide substrate is interrogated. The assay was carried out in 384-well plates to a final volume of 50 μL per well containing approximately 6 nM DNA-PK, 50 mM HEPES (pH 7.5), 10 mM MgCl2, 25 mM NaCl, 0.01% BSA, 1 mM DTT, 10 μg/mL sheared double-stranded DNA (obtained from Sigma), 0.8 mg/mL DNA-PK peptide ([…] obtained from American Peptide), and 100 μM ATP. Accordingly, compounds of the invention were dissolved in DMSO to make 10 mM initial stock solutions. Serial dilutions in DMSO were then made to obtain the final solutions for the assay. A 0.75 μL aliquot of DMSO or inhibitor in DMSO was added to each well, followed by the addition of ATP substrate solution containing ^33P-ATP (obtained from Perkin Elmer). The reaction was started by the addition of DNA-PK, peptide and ds-DNA. […] Following the addition of 50 μL of Ultima Gold™ high efficiency scintillant (obtained from Perkin Elmer), the samples were counted in a Packard TopCount NXT Microplate Scintillation and Luminescence Counter (Packard BioScience). The Ki values were calculated using Microsoft Excel Solver macros to fit the data to the kinetic model for competitive tight-binding inhibition.

Row | Compound | Ki [nM]
1 | CNC(=O)c1ccnc2c([C@H](C)CNc3cc(-c4ccc(N5CC5)nc4)ncn3)cccc12 [Compound 626] | ≤ 300
2 | CNC(=O)c1ccc([C@H](C)CNc2cc(-c3ccc(N4CC4)nc3)ncn2)c(OC)c1 [Compound 386] | ≤ 300
